{"source": "patent US8729031B2", "about": "“Compounds” (priority 2009, dated 2014)", "format_in_all_cases": "cell-based", "key": {"S. aureus R33 (MRSA)": {"system": "S. aureus R33 (MRSA)", "procedure": "(§1) Susceptibility testing with the exception of Streptococcus pneumoniae was performed by two-fold serial dilutions in Mueller Hinton Broth supplemented with 50 μg/mL Ca^2+. Susceptibility testing of S. pneumoniae was performed by two-fold serial dilutions in Brain-Heart-Infusion Broth supplemented with 50 μg/mL Ca^2+."}, "S. aureus SH1000": {"system": "S. aureus SH1000", "procedure": "as §1"}, "E. faecium": {"system": "E. faecium", "experiment": "MIC susceptibility testing, vancomycin resistant Enterococci (E. faecium)", "procedure": "as §1"}, "S. pyogenes": {"system": "S. pyogenes", "experiment": "MIC susceptibility testing, S. pyogenes"}, "E. faecalis": {"system": "E. faecalis", "experiment": "MIC susceptibility testing, vancomycin resistant Enterococci (E. faecalis)", "procedure": "as §1"}, "[1]": {"conditions": "E. faecalis GRL05031, vancomycin resistant"}, "[2]": {"conditions": "E. faecalis GRL05032, vancomycin resistant"}, "[3]": {"conditions": "E. faecalis GRL05033, vancomycin resistant"}, "[4]": {"conditions": "E. faecalis GRL05034, vancomycin resistant"}, "[5]": {"conditions": "E. faecalis GRL05035, vancomycin resistant"}}, "note": "For at least one compound, name, drawing or mass did not settle the structure.", "data": [{"compound": "CC[C@H](C)[C@@H]1NC(=O)[C@@H]2NC(=O)[C@H](CC(C)C)NC(=O)[C@H](NC(=O)[C@@H]3CSC[C@@H](N)C(=O)N[C@@H](CO)C(=O)NCC(=O)N[C@@H](Cc4c[nH]c5ccccc45)C(=O)N[C@@H](C(C)C)C(=O)N3)[C@H](C)SC[C@H](NC(=O)[C@H](CCC(=O)O)NC1=O)C(=O)NCC(=O)N[C@H]1C(=O)N[C@@H](CC(C)C)C(=O)N[C@@H](C(C)C)C(=O)N[C@@H](CS[C@H]2C)C(=O)N[C@@H](C)C(=O)N[C@H](C(=O)NCc2ccc(Br)cc2)CS[C@H]1C", "note": "[Example 9, Deoxyactagardine B [4-bromobenzylamine]monocarboxamide]", "values": [{"measurement": "MIC in μg/mL against strain S. aureus R33 (MRSA)", "setting": "S. aureus R33 (MRSA)", "result": "≦4 μg/mL"}]}, {"compound": "CC[C@H](C)[C@@H]1NC(=O)[C@@H]2NC(=O)[C@H](CC(C)C)NC(=O)[C@H](NC(=O)[C@@H]3CSC[C@@H](N)C(=O)N[C@@H](CO)C(=O)NCC(=O)N[C@@H](Cc4c[nH]c5ccccc45)C(=O)N[C@@H](C(C)C)C(=O)N3)[C@H](C)SC[C@H](NC(=O)[C@H](CCC(=O)O)NC1=O)C(=O)NCC(=O)N[C@H]1C(=O)N[C@@H](CC(C)C)C(=O)N[C@@H](C(C)C)C(=O)N[C@@H](CS[C@H]2C)C(=O)N[C@@H](C)C(=O)N[C@H](C(=O)N2CCN(CCNC(=O)c3cc([N+](=O)[O-])cc([N+](=O)[O-])c3)CC2)CS[C@H]1C", "note": "[Example 16, Deoxyactagardine B 19-[4-(2′-(3″,5″-dinitrobenzamido)-ethyl)-piperazine]monocarboxamide]", "values": [{"measurement": "MIC in μg/mL against strain S. aureus SH1000", "setting": "S. aureus SH1000", "result": "≦4 μg/mL"}]}, {"compound": "CC[C@H](C)[C@@H]1NC(=O)[C@@H]2NC(=O)[C@H](CC(C)C)NC(=O)[C@H](NC(=O)[C@@H]3CSC[C@@H](N)C(=O)N[C@@H](CO)C(=O)NCC(=O)N[C@@H](Cc4c[nH]c5ccccc45)C(=O)N[C@@H](C(C)C)C(=O)N3)[C@H](C)SC[C@H](NC(=O)[C@H](CCC(=O)O)NC1=O)C(=O)NCC(=O)N[C@H]1C(=O)N[C@@H](CC(C)C)C(=O)N[C@@H](C(C)C)C(=O)N[C@@H](CS[C@H]2C)C(=O)N[C@@H](C)C(=O)N[C@H](C(=O)NCc2ccc([N+](=O)[O-])cc2)CS[C@H]1C", "note": "[Example 8, Deoxyactagardine B [4-(4′-nitrobenzyl)piperazine]monocarboxamide]", "values": [{"measurement": "MIC in μg/mL against strain S. aureus SH1000", "setting": "S. aureus SH1000", "result": "≦4 μg/mL"}]}, {"compound": "CC[C@H](C)[C@@H]1NC(=O)[C@@H]2NC(=O)[C@H](CC(C)C)NC(=O)[C@H](NC(=O)[C@@H]3CSC[C@@H](N)C(=O)N[C@@H](CO)C(=O)NCC(=O)N[C@@H](Cc4c[nH]c5ccccc45)C(=O)N[C@@H](C(C)C)C(=O)N3)[C@H](C)SC[C@H](NC(=O)[C@H](CCC(=O)O)NC1=O)C(=O)NCC(=O)N[C@H]1C(=O)N[C@@H](CC(C)C)C(=O)N[C@@H](C(C)C)C(=O)N[C@@H](CS[C@H]2C)C(=O)N[C@@H](C)C(=O)N[C@H](C(=O)N2CCN(c3ccc(Cl)c(Cl)c3)CC2)CS[C@H]1C", "note": "[Example 10, Deoxyactagardine B [4-(3′,4′-dichlorophenyl)piperazine]monocarboxamide]", "values": [{"measurement": "MIC in μg/mL against strain S. aureus R33 (MRSA)", "setting": "S. aureus R33 (MRSA)", "result": "≦4 μg/mL"}]}, {"compound": "CC[C@H](C)[C@@H]1NC(=O)[C@@H]2NC(=O)[C@H](CC(C)C)NC(=O)[C@H](NC(=O)[C@@H]3CSC[C@@H](N)C(=O)N[C@@H](CO)C(=O)NCC(=O)N[C@@H](Cc4c[nH]c5ccccc45)C(=O)N[C@@H](C(C)C)C(=O)N3)[C@H](C)SC[C@H](NC(=O)[C@H](CCC(=O)O)NC1=O)C(=O)NCC(=O)N[C@H]1C(=O)N[C@@H](CC(C)C)C(=O)N[C@@H](C(C)C)C(=O)N[C@@H](CS[C@H]2C)C(=O)N[C@@H](C)C(=O)N[C@H](C(=O)NCc2cc(Cl)cc(Cl)c2)CS[C@H]1C", "note": "[Example 1, Deoxyactagardine B (3,5-dichlorobenzylamine)monocarboxamide]", "values": [{"measurement": "MIC", "setting": "E. faecium; E. faecium 7634337, vancomycin resistant", "result": "≦4 μg/mL"}, {"measurement": "MIC", "setting": "E. faecium; E. faecium 7865532, vancomycin resistant", "result": "≦4 μg/mL"}, {"measurement": "MIC", "setting": "E. faecium; E. faecium 9704998, vancomycin resistant", "result": "≦4 μg/mL"}, {"measurement": "MIC", "setting": "E. faecium; E. faecium 9709024, vancomycin resistant", "result": "≦4 μg/mL"}, {"measurement": "MIC in μg/mL against strain S. aureus SH1000", "setting": "S. aureus SH1000", "result": "≦4 μg/mL"}, {"measurement": "MIC in μg/mL against strain S. aureus R33 (MRSA)", "setting": "S. aureus R33 (MRSA)", "result": "≦4 μg/mL"}, {"measurement": "MIC", "setting": "S. pyogenes; S. pyogenes 7713283", "result": "≦2 μg/mL"}, {"measurement": "MIC", "setting": "S. pyogenes; S. pyogenes 7755255", "result": "≦2 μg/mL"}, {"measurement": "MIC", "setting": "S. pyogenes; S. pyogenes 7755441", "result": "≦2 μg/mL"}, {"measurement": "MIC", "setting": "S. pyogenes; S. pyogenes 7755584", "result": "≦2 μg/mL"}, {"measurement": "MIC", "setting": "S. pyogenes; S. pyogenes 7757080", "result": "≦2 μg/mL"}, {"measurement": "MIC", "setting": "S. pyogenes; S. pyogenes 7865253", "result": "≦2 μg/mL"}, {"measurement": "MIC", "setting": "S. pyogenes; S. pyogenes 7865289", "result": "≦2 μg/mL"}, {"measurement": "MIC", "setting": "S. pyogenes; S. pyogenes 7865844", "result": "≦2 μg/mL"}, {"measurement": "MIC", "setting": "S. pyogenes; S. pyogenes GRL05041", "result": "≦2 μg/mL"}, {"measurement": "MIC", "setting": "S. pyogenes; S. pyogenes GRL05042", "result": "≦2 μg/mL"}, {"measurement": "MIC", "setting": "S. pyogenes; S. pyogenes GRL05043", "result": "≦2 μg/mL"}, {"measurement": "MIC", "setting": "S. pyogenes; S. pyogenes GRL05045", "result": "≦2 μg/mL"}, {"measurement": "MIC", "setting": "S. pyogenes; S. pyogenes GRL05046", "result": "≦2 μg/mL"}, {"measurement": "MIC", "setting": "E. faecalis; [1]", "result": "≦4 μg/mL"}, {"measurement": "MIC", "setting": "E. faecalis; [2]", "result": "≦4 μg/mL"}, {"measurement": "MIC", "setting": "E. faecalis; [3]", "result": "≦4 μg/mL"}, {"measurement": "MIC", "setting": "E. faecalis; [4]", "result": "≦4 μg/mL"}, {"measurement": "MIC", "setting": "E. faecalis; [5]", "result": "≦4 μg/mL"}]}, {"compound": "CC[C@H](C)[C@@H]1NC(=O)[C@@H]2NC(=O)[C@H](CC(C)C)NC(=O)[C@H](NC(=O)[C@@H]3CSC[C@@H](N)C(=O)N[C@@H](CO)C(=O)NCC(=O)N[C@@H](Cc4c[nH]c5ccccc45)C(=O)N[C@@H](C(C)C)C(=O)N3)[C@H](C)SC[C@H](NC(=O)[C@H](CCC(=O)O)NC1=O)C(=O)NCC(=O)N[C@H]1C(=O)N[C@@H](CC(C)C)C(=O)N[C@@H](C(C)C)C(=O)N[C@@H](CS[C@H]2C)C(=O)N[C@@H](C)C(=O)N[C@H](C(=O)NCCCNCc2cc(Cl)cc(Cl)c2)CS[C@H]1C", "note": "[Example 11, Deoxyactagardine B [3-(3′,5′-dichlorobenzylamino)-1-propylamine]monocarboxamide]", "values": [{"measurement": "MIC in μg/mL against strain S. aureus SH1000", "setting": "S. aureus SH1000", "result": "≦4 μg/mL"}, {"measurement": "MIC in μg/mL against strain S. aureus R33 (MRSA)", "setting": "S. aureus R33 (MRSA)", "result": "≦4 μg/mL"}, {"measurement": "MIC", "setting": "S. pyogenes; S. pyogenes 7713283", "result": "≦2 μg/mL"}, {"measurement": "MIC", "setting": "S. pyogenes; S. pyogenes 7755255", "result": "≦2 μg/mL"}, {"measurement": "MIC", "setting": "S. pyogenes; S. pyogenes 7755441", "result": "≦2 μg/mL"}, {"measurement": "MIC", "setting": "S. pyogenes; S. pyogenes 7755584", "result": "≦2 μg/mL"}, {"measurement": "MIC", "setting": "S. pyogenes; S. pyogenes 7757080", "result": "≦2 μg/mL"}, {"measurement": "MIC", "setting": "S. pyogenes; S. pyogenes 7865253", "result": "≦2 μg/mL"}, {"measurement": "MIC", "setting": "S. pyogenes; S. pyogenes 7865289", "result": "≦2 μg/mL"}, {"measurement": "MIC", "setting": "S. pyogenes; S. pyogenes 7865844", "result": "≦2 μg/mL"}, {"measurement": "MIC", "setting": "S. pyogenes; S. pyogenes GRL05041", "result": "≦2 μg/mL"}, {"measurement": "MIC", "setting": "S. pyogenes; S. pyogenes GRL05042", "result": "≦2 μg/mL"}, {"measurement": "MIC", "setting": "S. pyogenes; S. pyogenes GRL05043", "result": "≦2 μg/mL"}, {"measurement": "MIC", "setting": "S. pyogenes; S. pyogenes GRL05045", "result": "≦2 μg/mL"}, {"measurement": "MIC", "setting": "S. pyogenes; S. pyogenes GRL05046", "result": "≦2 μg/mL"}, {"measurement": "MIC", "setting": "E. faecalis; E. faecalis 9758512, vancomycin resistant", "result": "≦4 μg/mL"}, {"measurement": "MIC", "setting": "E. faecalis; [1]", "result": "≦4 μg/mL"}, {"measurement": "MIC", "setting": "E. faecalis; [2]", "result": "≦4 μg/mL"}, {"measurement": "MIC", "setting": "E. faecalis; [3]", "result": "≦4 μg/mL"}, {"measurement": "MIC", "setting": "E. faecalis; [4]", "result": "≦4 μg/mL"}, {"measurement": "MIC", "setting": "E. faecalis; [5]", "result": "≦4 μg/mL"}]}]}
